Source: PMC10584835
No constants are given. Whether binding was seen depends on the method and setting. For some assays here: In cells and extracts the contact can be indirect. Some binding calls cover weakened binding; strength is not graded here. Where a sequence is shown, tags or fusion partners need not be part of it.

B1: C-terminal green fluorescent protein (GFP)-tagged hVE-cadherin (protein, UniProt P33151 48-784)
chain: DWIWNQMHIDEEKNTSLPHHVGKIKSSVSRKNAKYLLKGEYVGKVFRVDAETGDVFAIERLDRENISEYHLTAVIVDKDTGENLETPSSFTIKVHDVNDNWPVFTHRLFNASVPESSAVGTSVISVTAVDADDPTVGDHASVMYQILKGKEYFAIDNSGRIITITKSLDREKQARYEIVVEARDAQGLRGDSGTATVLVTLQDINDNFPFFTQTKYTFVVPEDTRVGTSVGSLFVEDPDEPQNRMTKYSILRGDYQDAFTIETNPAHNEGIIKPMKPLDYEYIQQYSFIVEATDPTIDLRYMSPPAGNRAQVIINITDVDEPPIFQQPFYHFQLKENQKKPLIGTVLAMDPDAARHSIGYSIRRTSDKGQFFRVTKKGDIYNEKELDREVYPWYNLTVEAKELDSTGTPTGKESIVQVHIEVLDENDNAPEFAKPYQPKVCENAVHGQLVLQISAIDKDITPRNVKFKFILNTENNFTLTDNHDNTANITVKYGQFDREHTKVHFLPVVISDNGMPSRTGTSTLTVAVCKCNEQGEFTFCEDMAAQVGVSIQAVVAILLCILTITVITLLIFLRRRLRKQARAHGKSVPEIHEQLVTYDEEGGGEMDTTSYDVSVLNSVRRGGAKPPRPALDARPSLYAQVQKPPRHAPGAHGGPGEMAAMIEVKKDEADHDGDGPPYDTLHIYGYEGSESIAESLSSLGTDSSDSDVDYDFLNDWGPRFKMLAELYGSDPREELLY
B2: VE-cadherin, endogenous in HMEC (protein, UniProt P33151 48-784)
chain: B1 chain

Columns and labels:
[1] = target: T1, CHFR (checkpoint protein with FHA and Ring domain), human recombinant protein on the AVM BIOMED microarray (human) (UniProt Q96EP1); experiment: peptide or protein array; AVM BIOMED Snapshot Proteomics microarray, 21,065 human recombinant proteins on nitrocellulose-coated slides; incubated 90 min at RT with hVE-cad-GFP (5 ug protein/ml in PBST); GFP fluorescence scanned; both purified
T1 sequence: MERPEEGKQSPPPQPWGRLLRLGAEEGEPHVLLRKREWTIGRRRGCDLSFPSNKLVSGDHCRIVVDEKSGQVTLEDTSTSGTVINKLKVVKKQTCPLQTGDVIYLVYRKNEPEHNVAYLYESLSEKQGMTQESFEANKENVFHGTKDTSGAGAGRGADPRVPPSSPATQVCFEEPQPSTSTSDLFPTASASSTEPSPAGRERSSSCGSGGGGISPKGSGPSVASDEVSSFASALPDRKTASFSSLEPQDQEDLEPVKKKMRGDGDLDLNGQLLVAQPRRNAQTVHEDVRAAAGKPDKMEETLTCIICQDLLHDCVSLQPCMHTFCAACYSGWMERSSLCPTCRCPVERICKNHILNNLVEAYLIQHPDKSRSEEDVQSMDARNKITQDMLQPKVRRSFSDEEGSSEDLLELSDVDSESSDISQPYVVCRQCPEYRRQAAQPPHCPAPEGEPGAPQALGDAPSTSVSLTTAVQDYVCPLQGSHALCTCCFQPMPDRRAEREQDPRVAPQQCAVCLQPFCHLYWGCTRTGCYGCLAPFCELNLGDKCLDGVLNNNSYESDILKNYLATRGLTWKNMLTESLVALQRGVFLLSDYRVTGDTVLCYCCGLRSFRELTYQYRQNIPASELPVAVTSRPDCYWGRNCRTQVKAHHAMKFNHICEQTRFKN

[2] = target: T2, N-terminal eGFP fused wild-type human CHFR (human) (UniProt Q96EP1); experiment: co-IP; anti-GFP agarose beads (GFP-Trap) pull-down from lysates of HMEC transfected with eGFP-CHFR constructs, 48 h after transfection; 150 ug lysate protein, 2 h at 4 C; immunoblot for endogenous VE-cadherin; ratio of VE-cadherin to GFP-CHFR quantified
T2 sequence: T1 sequence

Binder | binding [1] | binding [2]
B1 | binds | –
B2 | – | binds
